This is an account of results in patent US20090203581 (published 2009).

The data set in a line: general procedure: Fmoc solid-phase peptide synthesis; Fmoc-Rink resin (4-(2',4'-dimethoxyphenyl-Fmoc-aminomethyl)-phenoxypolystyrene resin, Bachem D-2080; 0.47 mmol/g); HOBt ester (HOAt with DIPEA for Fmoc-Glu(2-phenylisopropyloxy)-OH). The settings on record: whole synthesis, hydrochloride.

As for “16-(tetrazol-5-yl)hexadecanoyl-Gly-Thr-Gln-His-Ser-NIe-c[Glu-Hyp-D-Phe-Arg-Trp-Lys]-NH2”, the “final HPLC purity” value (UV 214 nm, scale of the general procedure 0.10 mmol) is on record as 100% purity. Under “scale 0.10 mmol”, this substance registered an isolated mass of 27.8 mg and an isolated yield of 16% yield.
